Experimental findings from publication PMC8345098 are described below.

Amino acid sequences for entries named in this document (tags omitted).
UniProt Q9H0K1: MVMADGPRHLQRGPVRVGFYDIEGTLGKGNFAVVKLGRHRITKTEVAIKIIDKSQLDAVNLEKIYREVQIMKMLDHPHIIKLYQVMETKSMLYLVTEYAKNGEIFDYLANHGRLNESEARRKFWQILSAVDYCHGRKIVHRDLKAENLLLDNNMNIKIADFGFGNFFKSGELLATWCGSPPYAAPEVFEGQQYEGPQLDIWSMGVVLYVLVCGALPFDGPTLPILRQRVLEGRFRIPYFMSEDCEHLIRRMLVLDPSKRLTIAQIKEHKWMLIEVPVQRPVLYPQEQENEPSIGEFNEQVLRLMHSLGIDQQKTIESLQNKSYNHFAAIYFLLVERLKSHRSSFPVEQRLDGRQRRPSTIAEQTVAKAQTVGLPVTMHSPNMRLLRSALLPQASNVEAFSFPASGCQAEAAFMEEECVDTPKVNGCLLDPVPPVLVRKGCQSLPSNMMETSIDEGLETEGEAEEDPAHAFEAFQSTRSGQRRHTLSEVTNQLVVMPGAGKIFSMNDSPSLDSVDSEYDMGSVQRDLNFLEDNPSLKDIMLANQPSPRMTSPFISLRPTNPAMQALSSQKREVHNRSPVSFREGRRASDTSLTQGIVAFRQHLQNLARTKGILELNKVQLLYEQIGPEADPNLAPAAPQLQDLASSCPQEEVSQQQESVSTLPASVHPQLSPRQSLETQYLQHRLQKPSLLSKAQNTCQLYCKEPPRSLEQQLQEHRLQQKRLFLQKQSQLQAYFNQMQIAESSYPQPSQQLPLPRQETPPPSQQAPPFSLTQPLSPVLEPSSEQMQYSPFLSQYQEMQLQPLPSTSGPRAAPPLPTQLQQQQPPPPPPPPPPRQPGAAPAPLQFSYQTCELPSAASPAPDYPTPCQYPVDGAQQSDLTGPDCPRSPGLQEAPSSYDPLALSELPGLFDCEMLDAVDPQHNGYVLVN
UniProt Q15691: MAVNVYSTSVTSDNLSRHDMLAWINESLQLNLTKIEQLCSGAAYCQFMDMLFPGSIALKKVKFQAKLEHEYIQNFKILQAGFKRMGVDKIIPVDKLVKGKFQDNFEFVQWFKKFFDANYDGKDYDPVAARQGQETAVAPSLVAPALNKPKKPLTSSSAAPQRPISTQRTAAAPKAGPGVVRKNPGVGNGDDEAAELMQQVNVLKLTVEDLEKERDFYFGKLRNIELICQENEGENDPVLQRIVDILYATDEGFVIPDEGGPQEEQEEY

No constants are given. Whether binding was seen depends on the method and setting. Binding seen in cells or lysates may run through a third protein. Some binding calls cover weakened binding; strength is not graded here.

For the assay, the target named is Salt inducible kinase 2 (SIK2) (human (endogenous in SKOV-3)) (UniProt Q9H0K1). Nature of the assay: co-IP; immunoprecipitation with SIK2 specific antibodies from SKOV-3 cells (G2-synchronized; also unsynchronized or G2 cells treated with MRIA9); precipitates and 5% of the input immunoblotted. (In general: Immunoblotting shows a protein as a band on a membrane.)

Regarding “End binding protein 1 (EB1) (from UniProt Q15691 1-268)”, the binding entry is listed as “binds”.

B1: KIF18B (protein, UniProt Q86Y91 1-852)
chain: MAVEDSTLQVVVRVRPPTPRELDSQRRPVVQVVDERVLVFNPEEPDGGFPGLKWGGTHDGPKKKGKDLTFVFDRVFGEAATQQDVFQHTTHSVLDSFLQGYNCSVFAYGATGAGKTHTMLGREGDPGIMYLTTVELYRRLEARQQEKHFEVLISYQEVYNEQIHDLLEPKGPLAIREDPDKGVVVQGLSFHQPASAEQLLEILTRGNRNRTQHPTDANATSSRSHAIFQIFVKQQDRVPGLTQAVQVAKMSLIDLAGSERASSTHAKGERLREGANINRSLLALINVLNALADAKGRKTHVPYRDSKLTRLLKDSLGGNCRTVMIAAISPSSLTYEDTYNTLKYADRAKEIRLSLKSNVTSLDCHISQYATICQQLQAEVAALRKKLQVYEGGGQPPPQDLPGSPKSGPPPEHQPCTPELPAGPRALQEESLGMEAQVERAMEGNSSDQEQSPEDEDEGPAEEVPTQMPEQNPTHALPESPRLTLQPKPVVGHFSARELDGDRSKQLALKVLCVAQRQYSLLQAANLLTPDMITEFETLQQLVQEEKIEPGAEALRTSGLARGAPLAQELCSESIPVPSPLCPEPPGYTGPVTRTMARRLSGPLHTLGIPPGPNCTPAQGSRWPMEKKRRRPSALEADSPMAPKRGTKRQRQSFLPCLRRGSLPDTQPSQGPSTPKGERASSPCHSPRVCPATVIKSRVPLGPSAMQNCSTPLALPTRDLNATFDLSEEPPSKPSFHECIGWDKIPQELSRLDQPFIPRAPVPLFTMKGPKPTSSLPGTSACKKKRVASSSVSHGRSRIARLPSSTLKRPAGPLVLPELPLSPLCPSNRRNGKDLIRVGRALSAGNGVTKVS
Take B1: the binding entry is on record as “binds”.
